# Results published in the supplement of paper PMC12578635.
# ± gives the standard deviation of the averaged measurements. The list shows a part of the results. Single values are uncertain, as repeats are few or missing.
# Test system: RAW 264.7 macrophages infected with S. aureus JE2-lux
# Assay: host macrophage viability (CellTiter-Fluor) relative to DMSO vehicle; higher = more viable host cells
# Details: 10 µM; treatment time 4 h; gentamicin 50 µg/ml
row,SMILES,host macrophage viability
1,O=C(O)c1cccc(N2C(=O)CC(Nc3ccc(F)cc3)C2=O)c1 (stereo not drawn),129%
2,COc1ccc(-c2cc(C(=O)Nc3cc(C)n(C)n3)ccc2-n2ccnc2)cc1,107%
3,COc1ccc2oc(=O)c(C(=O)NC3=C(C#N)CCC3)cc2c1,102%
4,Oc1nc(SCc2cc3c(cc2Cl)OCO3)nc2[nH]cnc12,116%
5,CCS(=O)(=O)c1ccccc1C(=O)N1CCN(c2nc3ccc([N+](=O)[O-])cc3s2)CC1,119%
6,CCc1ccc(NC(=O)c2cnn3c(=O)cc(C)[nH]c23)cc1,103%
7,O=C(CSc1ncnc2ccccc12)Nc1cccc(C(F)(F)F)c1,112 ± 9.4%
8,CCOC(=O)c1c(NC(=O)C(C)Sc2nc(=O)n3cc(C)ccc3n2)sc2c1CCCCC2 (stereo not drawn),129%
9,C=CCN1C(=O)c2oc3ccccc3c(=O)c2C1c1ccc(O)c(OC)c1 (stereo not drawn),125%
10,Cc1ccc2c(c1)/C(=N\NC(=S)Nc1cccc(O)c1)C(=O)N2,81.1%
11,CC1C(c2ccc(F)cc2)=NOC1C(=O)NC(c1ccccc1)c1ccnn1C (stereo not drawn),106%
12,Cc1ccc(S(=O)(=O)N(C)c2cncc(C(=O)NC(C)C)c2)cc1,123%
13,Cc1nc2ccccc2n1C(=O)c1ccccc1C(=O)O,112 ± 15%
14,CCOCCn1/c(=N\C(=O)c2cccc(S(C)(=O)=O)c2)sc2cccc(F)c21,110%
15,Cc1nn(C)c(C)c1S(=O)(=O)N1CCc2c(c(C(=O)N3CCOCC3)nn2C)C1,104%
16,COc1cccc(-c2noc(NC3CCCCC3)n2)c1,127%
17,Cc1cc(C)c2cc(CNCC3CCCO3)c3nn(C)c(=O)n3c2c1 (stereo not drawn),136%
18,CCCCN(C)S(=O)(=O)c1ccc(C(=O)Nc2ccc3ccccc3c2)cc1,98.3%
19,Cc1ccc(S(=O)(=O)Nc2ccccc2C(=O)Nc2sccc2C(N)=O)cc1,149%
20,Cc1ccc2nc3c(cc(S(=O)(=O)c4ccc(Cl)cc4)c(=N)n3C3CCCC3)c(=O)n2c1,118%
21,CC(=O)Nc1cc(-c2ccccc2)nn1-c1nc(-c2ccccc2)cs1,107%
22,Cc1ccc2cc(CCNC(=O)COc3ccc4ccccc4c3)c(=O)[nH]c2c1,129%
23,O=C(Cc1ccc(F)cc1)Nc1nnc(-c2ccccc2)[nH]1,115%
24,C=CCNC(=O)Cn1c(C)c(Cc2ccccc2)c(=O)n2nc(-c3ccc(C)cc3)nc12,111%
25,O=C(c1ccccc1F)N1CCc2cc(-c3csc(-c4cccnc4)n3)ccc21,117%
26,COc1cc2ccccc2cc1C(=O)Nc1nnc(-c2ccncc2)o1,110%

row,SMILES,host macrophage viability
1,CCOC(=O)c1c(NC(=O)C2CC(=O)NN2Cc2ccccc2)sc2c1CCC2 (stereo not drawn),115%
2,CCOC(=O)N1CCN(C(=O)CSc2ncnc3ccccc23)CC1,113 ± 7.4%
3,O=C(NCC(c1cccs1)S(=O)(=O)c1ccccc1)Oc1ccccc1 (stereo not drawn),123%
4,O=C(O)CC1C(=O)NCCN1Cc1cccc(C(F)(F)F)c1 (stereo not drawn),132%
5,COC(=O)c1c(NC(=O)c2ccc(C#N)cc2)sc2c1CC(C)(C)NC2(C)C,146%
6,Cc1nc2ccc3nc(NC(=O)c4sc5ccccc5c4Cl)sc3c2s1,144%
7,Cc1ccc(-n2c(C)cn3c4c(=O)n(CC(N)=O)c(=O)n(C)c4nc23)cc1,118%
8,O=c1[nH]c(NNC(=S)Nc2ccccc2)nc2sc3c(c12)CCCC3,104%
9,O=C(O)c1ccc2c(c1)C(=O)N(Cc1ccc3c(c1)OCO3)C2=O,129%
10,Cc1ccc(-c2nnn3c2[nH]c(=O)c2cc(Cl)ccc23)cc1,116%
11,O=C(NCCCc1ccccc1)c1c(O)nc2sccn2c1=O,102%
12,Nc1c(C(=O)NC2CCCCC2)sc2nc3c(cc12)C(=O)CCC3,111%
13,CCOC(=O)c1ccc2nc(NC(=O)Cc3cccc4ccccc34)sc2c1,118%
14,Cn1c(=O)c2cc(C(=O)Nc3nccs3)sc2n(C)c1=O,93.2%
15,CC1=C(C(=O)Nc2ccc(Br)cc2)C(c2ccc(C(C)C)cc2)NC(=O)N1 (stereo not drawn),101%
16,COc1ccc(C(=O)CSc2nc(COc3ccccc3)nc3ccccc23)cc1,99.7%
17,Cc1cc(NC(=O)CSC2=NS(=O)(=O)c3ccccc3N2)[nH]n1,118%
18,COc1cc2ncc(C(=O)NCc3cccnc3)c(O)c2cc1OC,109%
19,CN1C(=O)c2cccc(NC(=O)c3ccc(S(=O)(=O)N(C)CC4CCCO4)cc3)c2C1=O (stereo not drawn),130%
20,COc1ccc(C(=O)Nc2nc3c(cc4c5c(cccc53)CC4)s2)c(OC)c1,111 ± 9.1%
21,O=C(NC1CCCCC1)C(c1ccc2ncccc2c1)N(C(=O)c1cccs1)c1ccc(F)cc1 (stereo not drawn),123%
22,O=C(O)c1cccc(S(=O)(=O)/N=C2/C=C(NS(=O)(=O)c3ccccc3)C(=O)c3ccccc32)c1,80.7%
23,COc1ccc(O)c(NS(=O)(=O)c2ccc3c(c2)NC(=O)CO3)c1,99.7%
24,Cc1ccc(NC(=O)CC2C(=O)Nc3ccccc3N2C(=O)c2ccc(Br)cc2)cc1C (stereo not drawn),119%
25,CC[C@@H](Cn1ncc2ccccc2c1=O)NC(=O)c1ccc2c(c1)n(C)c(=O)n2C,121%
26,O=C(CSc1ncnc2c1oc1ccccc12)NCCc1ccccc1,124%

# A different layout for some results above:
row	SMILES	host macrophage viability
1	O=C(O)c1cccc(N2C(=O)CC(Nc3ccc(F)cc3)C2=O)c1 (stereo not drawn)	129%
22	Cc1ccc2cc(CCNC(=O)COc3ccc4ccccc4c3)c(=O)[nH]c2c1	129%
23	O=C(Cc1ccc(F)cc1)Nc1nnc(-c2ccccc2)[nH]1	115%
12	Nc1c(C(=O)NC2CCCCC2)sc2nc3c(cc12)C(=O)CCC3	111%
18	COc1cc2ncc(C(=O)NCc3cccnc3)c(O)c2cc1OC	109%
19	CN1C(=O)c2cccc(NC(=O)c3ccc(S(=O)(=O)N(C)CC4CCCO4)cc3)c2C1=O (stereo not drawn)	130%

# More results:

row,SMILES,host macrophage viability
1,Cc1cc(C)c(NC(=O)CS(=O)CC(=O)NC2CCS(=O)(=O)C2)c(C)c1 (stereo not drawn),113%
2,Cc1ccc(-c2c(C(F)(F)F)nn3c(N4CCN(c5ccccn5)CC4)cc(C)nc23)cc1,102%
3,NC(=O)c1ccsc1NC(=O)CCSc1ccc(F)cc1,120%
4,CCOC(=O)c1cc(NC(=O)Nc2ccc(I)cc2)c(C)nc1C,121%
5,Cc1ccccc1-c1ncccc1C(=O)N1CCC(C(=O)NC2CCCCCC2)CC1,104%
6,O=C(CCN1CCCCC1)Nc1c(-c2ccccc2)c2cc(Br)ccc2[nH]c1=O,126%
7,O=C(Nc1ccccc1Cl)C1CCN(c2c3c(nc4ncnn24)CCC3)CC1,88.4%
8,COc1ccccc1CNC(=O)C(=O)NCC1OCCN1C(=O)c1ccc2c(c1)OCO2 (stereo not drawn),109%
9,Cc1nc(-c2cccs2)c(CC(=O)Nc2ccc(Br)cc2)s1,118%
10,Cc1cccc2c(O)c(C(=O)N3CCC(C)CC3)cnc12,114%
11,COc1cccc(CNC(=O)Cn2cnc3onc(-c4ccc(Cl)cc4)c3c2=O)c1OC,139%
12,CC(NC(=O)CCCc1nnc2c(=O)n(-c3ccc(Cl)cc3)ccn12)c1ccccc1 (stereo not drawn),140%
13,CC(Sc1nc2ncccc2o1)C(=O)N1CCCc2ccccc21 (stereo not drawn),111%
14,Cc1cc(C)cc(-n2ncc3c(N4CCN(c5ccc(F)cc5)CC4)ncnc32)c1,101%
15,Cc1cccc(-c2nc(NC(=O)C(C)Oc3ccccc3Cl)no2)c1 (stereo not drawn),105%
16,CN(C)/C=N/c1c(C#N)cnn1-c1ncnc2sc(-c3ccccc3)cc12,134%
17,CCc1nc2ccc(NC(=O)c3cc(-c4ccccn4)n[nH]3)cc2[nH]1,112%
18,Cc1ccccc1-c1nc(NC(=O)COc2ccc(C(C)C)cc2)no1,106%
19,O=C(CSc1nc2c(oc3ccccc32)c(=O)n1CC1CCCO1)Nc1ccccc1F (stereo not drawn),121%
20,CCOc1ccccc1/C=N/NC(=O)CNC(=O)c1ccc(S(=O)(=O)N(CC)CC)cc1,125%
21,O=C(Nc1ncc(S(=O)(=O)c2ccc([N+](=O)[O-])cc2)s1)c1cccc(F)c1,103%
22,N#Cc1cc2cc3c(cc2nc1SCC(=O)N1CC(=O)Nc2ccccc21)OCO3,139%
23,CCCN1C(SCC(=O)Nc2ccccc2C(=O)OCC)=NS(=O)(=O)c2ccccc21,104%
24,Cc1cc(-c2csc(S(=O)(=O)N3CCOCC3)c2)on1,119%
25,Cc1cc(C)n(-c2cc(NCC(C)c3ccccc3)ncn2)n1 (stereo not drawn),121%
26,O=C(CSc1nncc(=O)[nH]1)Nc1ccc2c(c1)OCO2,110%

row,SMILES,host macrophage viability
1,Cc1ccc(NC2SC(=O)N(CC(=O)O)C2=O)cc1 (stereo not drawn),120%
2,COc1ccc(C(NC(=O)c2nnn(-c3ccccc3)c2C)c2ccncc2)cc1 (stereo not drawn),101%
3,CCc1cc(-c2csc(S(=O)(=O)Nc3ccc(F)c(Cl)c3)c2)on1,107%
4,O=C(CCC1CCCCC1)NCc1n[nH]c(=O)c2ccccc12,119%
5,CC1CCCCN1Cc1nc2c([nH]1)c(=O)n(C)c(=O)n2C (stereo not drawn),100%
6,C=CCOc1ccccc1/C=C1/SC(N2CCN(C)CC2)=NC1=O,123%
7,O=C(NCc1ccc2c(c1)OCO2)C(=O)NCC(c1ccco1)N1CCN(c2ccccc2)CC1 (stereo not drawn),111%
8,CC(=O)NC1(c2ccccc2F)CCN(Cc2cc3ccccc3nc2N(C)C)CC1,121%
9,O=C(Nc1cccc(NC(=O)c2ccccn2)c1)c1ccc2nccnc2c1,121%
10,N#CC1=C(N)OC2=C(C(=O)CCC2)C1c1ccco1 (stereo not drawn),111%
11,O=C(Nc1ccc2ncsc2c1)c1cc2ccccc2oc1=O,120%
12,Cc1nc2c(C(=O)NCc3cccnc3)cnn2c(O)c1Cc1ccc(F)cc1Cl,115%
13,Cc1[nH]c2nc(N(Cc3ccc(Cl)cc3)C(=O)CCc3ccccc3)nn2c(=O)c1C,116%
14,Cc1ccc(Cc2nnc(-c3cc(NC(=O)Nc4ccc5c(c4)OCCO5)ccc3F)o2)cc1,111%
15,O=C(N1CCC(n2nc(C3CC3)ccc2=O)CC1)C1(c2ccccc2)CC1,101%
16,CC[C@@H](Cn1nc(-c2ccc(F)c(F)c2)ccc1=O)NC(=O)Cc1ccccc1F,128%
17,Cc1nc2cc(-c3noc(CNS(=O)(=O)c4ccccc4)n3)ccc2n(C2CCCC2)c1=O,118%
18,CCN1CCC(CCc2ccc(NC(=O)c3cccc4c3C(=O)N(C)C4)cc2)C(C)C1 (stereo not drawn),101%
19,CC1=NN(Cc2ccc(C)cc2)c2nc3c(c(=O)n(C)c(=O)n3C)n2C1,110%
20,COc1ccc(CCNC(=O)C2CCCN2C(=O)Nc2ccc(F)cc2)cc1OC (stereo not drawn),125%
21,Cc1nc(N2CCN(C(=O)c3ccco3)CC2)c2nnn(Cc3ccccc3)c2n1,98.8%
22,COc1cc(Nc2ncc3c(n2)CCN(S(=O)(=O)c2cccc4nsnc24)C3)cc(OC)c1,122%
23,Cc1cc(NC(=O)c2c3c(nc4ccccc24)C(=O)N(C2CCCCC2)C3)no1,130%
24,O=C1NC(c2ccc(Cl)cc2)c2c1oc1ccccc1c2=O (stereo not drawn),135%
25,CC(=O)Cc1nsc(NC(=O)c2ccoc2COc2ccc(C)cc2)n1,133%
